Test results reported in US20090227612A1, “Aminopyrimidine Derivatives Inhibiting Protein Kinase Activity, Method For The Preparation Thereof And Pharmaceutical Composition Containing Same” (priority 2005, published 2009).

System: human colon carcinoma cell line, HCT116
Test: Cancer cell proliferation, SRB assay
Assay type: cell-based
Conditions: CC50(μM)/EC50(μM), MRC-5 vs HCT116
Description: In order to examine the suppressive effect of the inventive aminopyrimidine derivatives on the proliferation of cancer cells through inhibiting the protein kinase activity, a test was performed as follows by employing human colon carcinoma cell line, HCT116 (Korean Cell Line Bank, KCLB10247) and human fetal cell line, MRC-5 (Korean Cell Line Bank, KCLB10171).
HCT116 and MRC-5 cells were plated into the wells of a 96-well plate containing DMEM (Dulbecco's Modified Eagle Medium) medium at a concentration ranging from 1×10^3 to 3×10^3 cells/well, and cultured under conditions of 5% CO2 and 37° C. for 24 hours. Then, the test compounds of Examples 85 to 88, 97 to 99, 105 to 110 and 115 to 118, and a comparative compound, N-(4-(4-(5-methyl-1H-pyrrole-3-yl-amino)-6-(4-methylpiperazin-1-yl)-1,3,5-triazin-2-ylthio) cyclopropane carboxyamide were added thereto in an amount of 0.2, 1, 5, 25 and 100 μM, respectively. The control was not treated with any compound. The cells were cultured for 48 hours.
After removing the medium from each wells, the cells were washed about 3 times with phosphate-buffered saline (PBS, pH 7.4), followed by fixing with 50% TCA (trichloroacetic acid) refrigerant solution in an amount of 50 μl/well at 4° C. for 1 hour. The fixed cells were washed 5 times with distilled water and dried in the air, and stained with 50 μl/well of 1% acetic acid containing 0.4% SRB (sulforhodamine B) solution at room temperature for 1 hour. The stained cells were washed 5 times with 1% acetic acid and dried in the air, 150 μl/well of 10 mM Tris-HCl (pH 10.5) were added thereto, and the absorbance of each well was measured at 540 nm. The suppressive value of each compound for cell proliferation was calculated based on the absorbance of the control well, and the results are shown in Table 2. In Table 2, EC50 (μM) was determined as a concentration of the test compound required to inhibit cancer cell proliferation by 50% relative to the control, CC50 (μM) was determined as a concentration of the test compound required to inhibit normal cell proliferation by 50% relative to the control, and the therapeutic index was determined as the value of CC50(μM)/EC50(μM).

Row | Structure (SMILES) | Therapeutic index
1 | CC1(C)C2CCC1(C)C(NC(=O)c1ccnc(Nc3cccc(NCCCN4CCOCC4)c3)n1)C2 (centres unmarked) [Compound 97, 2-(3-(3-morpholinopropylamino)phenylamino)-N-(1,7,7-trimethylbicyclo[2.2.1]hep-tan-2-yl)pyrimidine-4-carboxyamide] | >33.3
2 | CC(C)N1CCN(c2ccc(Nc3nccc(C(=O)NC4CC5CCC4(C)C5(C)C)n3)cc2)CC1 (centres unmarked) [Compound 109, 2-(4-(4-isopropylpiperazin-1-yl)phenylamino)-N-(1,7,7-trimethylbicyclo[2.2.1]hep-tan-2-yl)pyrimidine-4-carboxyamide] | 8.4
3 | CC1(C)C2CCC1(C)C(NC(=O)c1ccnc(Nc3ccc(N4CCN(CC#N)CC4)cc3)n1)C2 (centres unmarked) [Compound 116, 2-(4-(4-(cianomethyl)piperazin-1-yl)phenylamino)-N-(1,7,7-trimethylbicyclo [2.2.1]heptan-2-yl)pyrimidine-4-carboxyamide] | 15.6
4 | CC1(C)C2CCC1(C)C(NC(=O)c1ccnc(Nc3ccc(N4CCN(CCO)CC4)cc3)n1)C2 (centres unmarked) [Compound 108, 2-(4-(4-(2-hydroxyethyl)piperazin-1-yl)phenylamino)-N-(1,7,7-trimethylbicyclo[2.2.1]hep-tan-2-yl)pyrimidine-4-carboxyamide] | 29.4
5 | CCN(CC)CCOc1cc(Nc2nccc(C(=O)NC3CC4CCC3(C)C4(C)C)n2)ccc1OC (centres unmarked) [Compound 106, 2-(3-(2-(diethylamino)ethoxy)-4-methoxyphenylamino)-N-(1,7,7-trimethylbicyclo[2.2.1]hep-tan-2-yl)pyrimidine-4-carboxyamide] | 67.6
6 | CC1(C)C2CCC1(C)C(NC(=O)c1ccnc(Nc3ccc(N4CCCCC4)cc3)n1)C2 (centres unmarked) [Compound 85, 2-(4-(piperidine-1-yl)phenylamino)-N-(1,7,7-trimethylbicyclo[2.2.1]heptane-2-yl)pyrimidine-4-carboxyamide] | 23.8
7 | CC1(C)C2CCC1(C)C(NC(=O)c1ccnc(Nc3cccc(NCC#N)c3)n1)C2 (centres unmarked) [Compound 118, 2-(3-(cianomethylamino)phenylami-no)-N-(1,7,7-trimethylbicyclo-[2.2.1]heptane-2-yl)pyrimidine-4-carboxyamide] | 22.4
8 | CC(C)CN1CCN(c2ccc(Nc3nccc(C(=O)NC4CC5CCC4(C)C5(C)C)n3)cc2)CC1 (centres unmarked) [Compound 115, 2-(4-(4-isobutylpiperazin-1-yl)phenylamino)-N-(1,7,7-trimethylbicyclo-[2.2.1]heptan-2-yl)pyrimidine-4-carboxyamide] | 32.4
9 | COc1ccc(Nc2nccc(C(=O)NC3CC4CCC3(C)C4(C)C)n2)cc1OCCN1CCOCC1 (centres unmarked) [Compound 99, 2-(4-methoxy-3-(2-morpholinoethoxy)phenyl-amino)-N-(1,7,7-trimethylbicyclo[2.2.1]hep-tan-2-yl)pyrimidine-4-carboxyamide] | 26.0
10 | CCN1CCN(c2ccc(Nc3nccc(C(=O)NC4CC5CCC4(C)C5(C)C)n3)cc2)CC1 (centres unmarked) [Compound 105, 2-(4-(4-ethylpiperazin-1-yl)phenylamino)-N-(1,7,7-trimethylbicyclo[2.2.1]hep-tan-2-yl)pyrimidine-4-carboxyamide] | >100
11 | CN(C)CCNc1ccc(Nc2nccc(C(=O)NC3CC4CCC3(C)C4(C)C)n2)cc1 (centres unmarked) [Compound 86] | >83
12 | CCCN1CCN(c2ccc(Nc3nccc(C(=O)NC4CC5CCC4(C)C5(C)C)n3)cc2)CC1 (centres unmarked) [Compound 110, 2-(4-(4-propylpiperazin-1-yl)phenylamino)-N-(1,7,7-trimethylbicyclo[2.2.1]hep-tan-2-yl)pyrimidine-4-carboxyamide] | 16.8
13 | CC1(C)C2CCC1(C)C(NC(=O)c1ccnc(Nc3cccc(NCCCN4CCOCC4)c3)n1)C2 (centres unmarked) [Compound 98, 2-(3-(3-morpholinopropylamino)phenylamino)-N-(1,7,7-trimethylbicyclo[2.2.1]hep-tan-2-yl)pyrimidine-4-carboxyamide] | 16.4
14 | COc1ccc(Nc2nccc(C(=O)NC3CC4CCC3(C)C4(C)C)n2)cc1OCCN1CCCC1 (centres unmarked) [Compound 107, 2-(4-methoxy-3-(2-(pyrrolidin-1-yl)ethoxy)phenylamino)-N-(1,7,7-trimethylbicyclo[2.2.1]hep-tan-2-yl)pyrimidine-4-carboxyamide] | 38.0
